By UniProt entry, the sequences of proteins in these tests, tags left out.
UniProt O00151: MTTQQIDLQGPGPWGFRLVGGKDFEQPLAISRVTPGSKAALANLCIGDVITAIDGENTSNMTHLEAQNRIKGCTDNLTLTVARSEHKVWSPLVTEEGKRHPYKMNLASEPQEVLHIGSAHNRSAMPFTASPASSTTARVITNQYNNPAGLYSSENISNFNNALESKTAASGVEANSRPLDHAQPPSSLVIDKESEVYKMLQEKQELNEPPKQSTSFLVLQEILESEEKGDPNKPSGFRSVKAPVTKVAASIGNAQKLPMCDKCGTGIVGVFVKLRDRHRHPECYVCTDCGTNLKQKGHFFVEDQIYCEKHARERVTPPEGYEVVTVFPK
UniProt P67936: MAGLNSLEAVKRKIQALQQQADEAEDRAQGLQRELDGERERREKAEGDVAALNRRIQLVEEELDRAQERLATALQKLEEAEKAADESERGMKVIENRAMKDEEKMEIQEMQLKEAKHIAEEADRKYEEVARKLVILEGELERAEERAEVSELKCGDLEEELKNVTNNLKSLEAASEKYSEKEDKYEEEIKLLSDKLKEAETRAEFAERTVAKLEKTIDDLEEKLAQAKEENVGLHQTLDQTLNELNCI
UniProt P12814: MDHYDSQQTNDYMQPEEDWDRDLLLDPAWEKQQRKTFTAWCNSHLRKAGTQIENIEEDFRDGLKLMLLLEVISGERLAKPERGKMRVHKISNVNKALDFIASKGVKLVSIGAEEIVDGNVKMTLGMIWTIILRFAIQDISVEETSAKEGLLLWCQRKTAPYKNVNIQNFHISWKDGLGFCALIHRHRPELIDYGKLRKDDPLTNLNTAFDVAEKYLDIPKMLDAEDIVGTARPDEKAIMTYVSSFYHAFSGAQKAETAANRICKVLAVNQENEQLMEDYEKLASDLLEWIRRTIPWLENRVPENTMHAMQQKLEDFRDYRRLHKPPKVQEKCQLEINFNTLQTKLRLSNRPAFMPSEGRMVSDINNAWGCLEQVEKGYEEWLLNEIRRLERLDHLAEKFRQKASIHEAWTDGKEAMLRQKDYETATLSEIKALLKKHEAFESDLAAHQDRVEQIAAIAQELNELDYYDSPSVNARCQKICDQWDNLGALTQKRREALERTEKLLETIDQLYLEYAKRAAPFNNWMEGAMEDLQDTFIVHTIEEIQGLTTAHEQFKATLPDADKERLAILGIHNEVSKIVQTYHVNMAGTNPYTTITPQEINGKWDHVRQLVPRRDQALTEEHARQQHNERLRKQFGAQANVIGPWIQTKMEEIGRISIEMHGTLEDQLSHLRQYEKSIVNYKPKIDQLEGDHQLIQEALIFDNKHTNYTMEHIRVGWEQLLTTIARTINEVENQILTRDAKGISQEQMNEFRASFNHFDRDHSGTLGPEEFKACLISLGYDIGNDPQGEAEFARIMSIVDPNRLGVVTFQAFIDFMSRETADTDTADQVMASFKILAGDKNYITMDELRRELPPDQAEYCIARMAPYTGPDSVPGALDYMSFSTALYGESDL

In article PMC11612400:

Legend:
Assay in all cases: proximity labelling; TurboID fusions transiently expressed in MDA-MB-231 cells; 50 μmol/L biotin for 10 min; RIPA lysate on streptavidin magnetic beads; mass spectrometry; hits of the empty Turbo group subtracted
[1] = target: T1, ArgBP2-TurboID (UniProt O94875)
T1 sequence: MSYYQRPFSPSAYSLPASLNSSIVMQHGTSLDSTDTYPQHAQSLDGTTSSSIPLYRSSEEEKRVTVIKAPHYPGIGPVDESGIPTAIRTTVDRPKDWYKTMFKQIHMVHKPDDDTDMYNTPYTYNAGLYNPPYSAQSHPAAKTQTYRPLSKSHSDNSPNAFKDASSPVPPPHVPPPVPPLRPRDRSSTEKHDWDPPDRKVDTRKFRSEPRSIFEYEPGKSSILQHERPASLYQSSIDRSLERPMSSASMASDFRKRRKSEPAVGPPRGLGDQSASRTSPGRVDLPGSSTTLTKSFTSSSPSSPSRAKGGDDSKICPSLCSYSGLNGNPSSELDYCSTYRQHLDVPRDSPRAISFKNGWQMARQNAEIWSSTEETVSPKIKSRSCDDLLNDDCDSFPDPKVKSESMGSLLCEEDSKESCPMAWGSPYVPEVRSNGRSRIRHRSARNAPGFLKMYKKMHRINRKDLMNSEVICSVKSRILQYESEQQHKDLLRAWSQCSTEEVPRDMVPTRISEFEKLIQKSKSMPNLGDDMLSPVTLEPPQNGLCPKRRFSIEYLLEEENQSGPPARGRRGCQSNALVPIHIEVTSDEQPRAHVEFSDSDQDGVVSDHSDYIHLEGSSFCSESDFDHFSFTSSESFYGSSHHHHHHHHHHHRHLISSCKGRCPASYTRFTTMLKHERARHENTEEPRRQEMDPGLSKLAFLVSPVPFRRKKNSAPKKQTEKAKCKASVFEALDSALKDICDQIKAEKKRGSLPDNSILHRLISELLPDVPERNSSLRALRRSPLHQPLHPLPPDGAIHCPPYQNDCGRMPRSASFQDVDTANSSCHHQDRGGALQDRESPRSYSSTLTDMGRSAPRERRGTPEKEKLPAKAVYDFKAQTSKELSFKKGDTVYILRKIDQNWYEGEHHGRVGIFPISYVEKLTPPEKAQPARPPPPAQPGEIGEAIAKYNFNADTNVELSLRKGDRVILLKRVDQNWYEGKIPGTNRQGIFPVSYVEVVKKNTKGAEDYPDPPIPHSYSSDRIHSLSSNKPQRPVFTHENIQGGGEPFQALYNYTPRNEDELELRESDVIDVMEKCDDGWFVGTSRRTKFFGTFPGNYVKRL

[2] = target: PDLIM1-TurboID (UniProt O00151)
[3] = target: TPM4-TurboID (UniProt P67936)
[4] = target: α-actinin1-TurboID (UniProt P12814)

binding [1]: binds
binding [2]: binds
binding [3]: binds
binding [4]: binds
B1: PFKM (phosphofructokinase muscle type), endogenous (enzyme, UniProt P08237 1-780)
chain: MTHEEHHAAKTLGIGKAIAVLTSGGDAQGMNAAVRAVVRVGIFTGARVFFVHEGYQGLVDGGDHIKEATWESVSMMLQLGGTVIGSARCKDFREREGRLRAAYNLVKRGITNLCVIGGDGSLTGADTFRSEWSDLLSDLQKAGKITDEEATKSSYLNIVGLVGSIDNDFCGTDMTIGTDSALHRIMEIVDAITTTAQSHQRTFVLEVMGRHCGYLALVTSLSCGADWVFIPECPPDDDWEEHLCRRLSETRTRGSRLNIIIVAEGAIDKNGKPITSEDIKNLVVKRLGYDTRVTVLGHVQRGGTPSAFDRILGSRMGVEAVMALLEGTPDTPACVVSLSGNQAVRLPLMECVQVTKDVTKAMDEKKFDEALKLRGRSFMNNWEVYKLLAHVRPPVSKSGSHTVAVMNVGAPAAGMNAAVRSTVRIGLIQGNRVLVVHDGFEGLAKGQIEEAGWSYVGGWTGQGGSKLGTKRTLPKKSFEQISANITKFNIQGLVIIGGFEAYTGGLELMEGRKQFDELCIPFVVIPATVSNNVPGSDFSVGADTALNTICTTCDRIKQSAAGTKRRVFIIETMGGYCGYLATMAGLAAGADAAYIFEEPFTIRDLQANVEHLVQKMKTTVKRGLVLRNEKCNENYTTDFIFNLYSEEGKGIFDSRKNVLGHMQQGGSPTPFDRNFATKMGAKAMNWMSGKIKESYRNGRIFANTPDSGCVLGMRKRALVFQPVAELKDQTDFEHRIPKEQWWLKLRPILKILAKYEIDLDTSDHAHLEHITRKRSGEAAV

No constants are given. Whether binding was seen depends on the method and setting. In cells and extracts the contact can be indirect. A yes stands for co-enrichment or nearness to the bait. Other partners may have been found.
